# From paper PMC2970546
# Results are given in words; binding and its absence hold for the method and conditions named. Binding calls can cover weak binding; strength is not graded here.
# What was measured:
# human septin 2 (human) = molecular target: T1, human septin 2 (human) (UniProt Q15019); test: two-hybrid; LexA-septin bait (modified pBTM116) in yeast L40 screened against human fetal brain and human leukocyte cDNA libraries (pACT2); minimal medium without Trp, Leu, His, with 5 mM 3-AT; every clone confirmed one-to-one with its bait by beta-galactosidase filter assay, empty bait vector as control
# T1 sequence: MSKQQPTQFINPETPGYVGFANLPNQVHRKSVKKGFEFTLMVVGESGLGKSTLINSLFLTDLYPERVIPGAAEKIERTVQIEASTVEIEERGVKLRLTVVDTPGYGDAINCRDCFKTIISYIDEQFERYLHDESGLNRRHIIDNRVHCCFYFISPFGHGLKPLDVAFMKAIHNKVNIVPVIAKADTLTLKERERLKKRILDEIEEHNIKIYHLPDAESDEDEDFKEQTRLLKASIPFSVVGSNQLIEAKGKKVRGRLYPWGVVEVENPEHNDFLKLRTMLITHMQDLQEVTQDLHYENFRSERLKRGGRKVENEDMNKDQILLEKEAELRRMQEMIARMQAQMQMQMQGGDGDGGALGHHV
# human septin 6 (human) = molecular target: T2, human septin 6 (human) (UniProt Q14141); test: as above
# T2 sequence: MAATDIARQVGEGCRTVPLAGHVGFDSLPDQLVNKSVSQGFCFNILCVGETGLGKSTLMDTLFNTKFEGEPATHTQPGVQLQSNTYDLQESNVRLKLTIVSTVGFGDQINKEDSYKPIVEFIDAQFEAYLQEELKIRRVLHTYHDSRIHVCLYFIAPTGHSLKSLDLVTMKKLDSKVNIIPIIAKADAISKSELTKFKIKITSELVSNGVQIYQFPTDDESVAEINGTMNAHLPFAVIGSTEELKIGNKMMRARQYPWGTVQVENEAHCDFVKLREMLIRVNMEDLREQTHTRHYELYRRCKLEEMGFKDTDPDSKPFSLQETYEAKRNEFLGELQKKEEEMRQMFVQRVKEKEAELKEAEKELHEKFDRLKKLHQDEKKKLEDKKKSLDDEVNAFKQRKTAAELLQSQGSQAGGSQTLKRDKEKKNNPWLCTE
binding (human septin 2 (human)),binding (human septin 6 (human)),Substance
binds,–,PC-S/K-I (human)
–,binds,SEPT4(101-478) (from UniProt O43236-1) (domain or fragment)
